{
  "source": "patent EP4035684A1",
  "about": "(AF Chemical LLC, priority 2019, dated 2022)",
  "assay": "general procedure: peptide synthesis; EDC/ODHBt/NMM; DIC/HOBt",
  "details": "conjugation step",
  "note": "HELM strings list residues between dots; [ac] is acetyl, [am] amide, other brackets name non-standard units.",
  "data": [
    {"substance": "PEPTIDE1{[Mu].H.S.S.K.L.Q.L.[AF-propyl-NH]}$$$$V2.0", "values": [
      {"measurement": "conjugation yield", "result": 21, "unit": "%"}
    ]},
    {"substance": "PEPTIDE1{[ac].[Hyp].S.S.[Chg].Q.S.S.P.[AF-propyl-O]}$$$$V2.0", "values": [
      {"measurement": "conjugation yield", "result": 69, "unit": "%"}
    ]},
    {"substance": "PEPTIDE1{[ac].[Hyp].S.S.[Chg].Q.S.S.P.[IlludinM-O]}$$$$V2.0", "values": [
      {"measurement": "conjugation yield", "result": 33, "unit": "%"},
      {"measurement": "crude HPLC purity", "setting": "HPLC", "result": 70, "unit": "%"}
    ]},
    {"substance": "PEPTIDE1{[ac].[Hyp].S.S.[Chg].Q.S.S.P.[TBS-IlludinS-O]}$$$$V2.0", "values": [
      {"measurement": "conjugation yield", "result": 47, "unit": "%"}
    ]}
  ]
}
